Results published in patent publication US5395609A, “Synthetic peptides for use in tumor detection” (Antisoma Limited, priority 1989, dated 1995).
Not every detail of the peptide structures is certain; ends, links or a residue may be inferred. No end group written: not given here.

System: ADP-induced platelet aggregation
Experiment: Inhibition of ADP-induced platelet aggregation
Assay type: cell-based
Details: ADP 1 × 10^-5 M

How did the percentage inhibition (peptide 0.1 mM) turn out when RGDSCRGDSY was run?
The percentage inhibition was 17.

What about the percentage inhibition (peptide 0.2 mM) of the same substance?
Its percentage inhibition is 57.

What about the percentage inhibition (peptide 0.4 mM) of the same substance?
The percentage inhibition was 79.

How did the percentage inhibition (peptide 0.1 mM) turn out when RGDSYC [RGDSYC] was run?
The percentage inhibition was 25.
